Publication PMC10499876, “Arabidopsis TCP4 transcription factor inhibits high temperature-induced homeotic conversion of ovules”

Biological target: T1, TCP4 DNA binding domain (Arabidopsis thaliana) (UniProt Q8LPR5)
T1 sequence (looked up, limits assumed): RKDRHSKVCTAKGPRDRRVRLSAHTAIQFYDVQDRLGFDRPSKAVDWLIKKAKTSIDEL
Assay: EMSA
Details: EMSA: ~180 ng protein + ~200 ng dsDNA, 4 °C 20 min; DNA annealed in 25 mM Tris, 100 mM NaCl pH 8.0; 7% native PAGE in 0.5x TBE, ethidium bromide; recombinant protein; protein details: C-terminal His (pET-21b)

Sequence	binding result
CGTCTTTATGGTCCATTCTATATG (double strand) [SPT promoter probe 2]	binds
GAAAATCTCGTGGTCCATCTAAAAAT (double strand) [SPT promoter probe 1]	binds

For at least one entry, the source does not settle the construct or the ends of the probe. At least one verdict was read from the data and is not stated in words by the source. Where a protein sequence is shown, tags need not be part of it.
